The subject of this data set is A7r5 cells. The data set is described as follows: RNA-Seq transcriptomics of Ang II-stimulated VSMCs. The format is cell-based, rat.
Setting [1] is: FPQYLQYPY vs Ang II-treated group, GO enrichment analysis.

Ends that are not written are not given here.

With FPQYLQYPY [FPQYLQYPY, also synthesized], the “Number of differentially expressed genes (DEGs)” value (FPQYLQYPY treated group vs Ang II-treated group, 24 h, P < 0.05) was 342. Under setting [1], the “Number of significantly downregulated genes” value was 117 and the “Number of significantly upregulated genes” value turned out to be 212.

The values above are taken from paper PMC9037752 (Frontiers in Nutrition, 2022).
